Laboratory results published in patent US8071368B2 (Alizé Pharma SAS, priority 2001, dated 2011).

Experiment: peptide synthesis
Settings: whole synthesis, HPLC, tifluoroacetate salt

Which “purity (crude or final not stated)” value does the source give for “NH2Gly-Ser-Ser-Phe-Leu-Ser-Pro-Glu-His-Gln-Arg-Val-Gln-Gln-Arg-Lys-Glu-Ser-Lys-Lys-Pro-Pro-Ala-Lys-Leu-Gln-Pro-Arg (GSSFLSPEHQRVQQRKESKKPPAKLQPR; synthetic polypeptide unacylated ghrelin)” here?
Its value is 95.1%.
